Experimental findings from PubChem BioAssay AID662 (National Center for Advancing Translational Sciences (NCATS), 2007) are described below.

Usually AC50 stands for the concentration at which the activity in the assay is half-maximal.

The list shows a part of the results. The main result of the screen is listed elsewhere. These columns were measured beside it and carry no call. Most of these compounds were active or inconclusive in the main read-out, so they are no random draw. Potencies come from curve fits of mixed quality, noted in brackets.

A short description of this assay: Cell signaling CRE-BLA (Fsk stim). Particulars: CHO CRE-bla reporter (cAMP response element driving beta-lactamase), forskolin EC10, beta-lactamase ratio; measured here: 460 nm blue channel. The gist of the method: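 qHTS titration format; CRE-bla CHO reporter; stimulus EC10 NKH 477, a water-soluble forskolin. Read: CCF4 460/530 nm ratio. Potency expressed as AC50 for activators or inhibitors.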
Turning to `CCCCn1c(CN2CCN(C(=O)OCC)CC2)nc2c1c(=O)[nH]c(=O)n2C`, the AC50 is 0.0794 µM [rising, full curve, poor fit].
The same measure for `CCC(C)(C)n1nnnc1C(c1cc2cc(OC)c(OC)cc2[nH]c1=O)N1CCc2ccccc21` (stereo not drawn): 12.6 µM [rising, single point]; for `CCN(CC)CCCC(C)n1c(-c2ccccc2)nc2c(NCCO)nc(C)nc21` (stereo not drawn): 2.51 µM [rising, partial curve].
To `CCSc1nnc(NC(=O)CSc2nc(CC)nc3c2c(=O)n(C)c(=O)n3C)s1` belongs 2.51 µM [rising, full curve]; to `COc1cc(Cn2c(=O)oc3ccc(C)cc32)ccc1OC(C)C`, 7.94 µM [rising, partial curve]; to `N#CCCn1c(=O)c(-c2ccc(F)cc2)nc2cnc(N3CCNCC3)nc21`, 7.94 µM [rising, partial curve].
The same measure for `Cc1ccc(-n2c(=O)c(C#N)cc3c(=O)n4ccccc4nc32)cc1`: 3.98 µM [rising, partial curve].
Regarding `Cc1nc2cnc(N(C)C)nc2n(C2CC2)c1=O`, the AC50 is 10 µM [rising, partial curve].
For the compound `Cc1ccc(-n2c(C)cc(C(=O)CSc3nnnn3C)c2C)cc1`, the AC50 was 25.1 µM [rising, single point].
Consider `Cc1ccc(C)c(Cn2c(=O)n(CCC(=O)NCc3ccco3)c(=O)c3sccc32)c1`, for which the AC50 was 12.6 µM [rising, single point].
To `CCc1ccccc1N1CC(C(=O)O)CC1=O` (stereo not drawn) belongs 2.51 µM [rising, full curve]; to `CCOc1ccccc1N1CSC2=C(C#N)C(c3c(OC)ccc4ccccc34)CC(=O)N2C1` (stereo not drawn), 10 µM [falling, single point].
The same measure for `COc1ccc(-c2nnc3sc(-c4cccs4)nn23)cc1OC`: 5.01 µM [rising, partial curve]; for `O=C(O)c1cccc(NC(=O)C23CC4CC(C2)CC(n2cnc(Cl)n2)(C4)C3)c1`: 0.251 µM [falling, full curve]; for `Cc1cccn2c(=O)c3cc(C(=O)NCc4ccccn4)n(C)c3nc12`: 2.51 µM [rising, full curve].
The same measure for `O=C(Nc1ccccc1NC(=O)c1c(F)c(F)c(F)c(F)c1F)c1c(F)c(F)c(F)c(F)c1F`: 12.6 µM [falling, single point]; for `O=C(Cc1ccccc1)N1CCCC1c1ccccc1` (stereo not drawn): 2.51 µM [falling, partial curve].
For `OC[C@@H]1O[C@@H](n2cnc3c(NCc4ccco4)ncnc32)[C@H](O)[C@H]1O`, the AC50 is 5.01 µM [rising, full curve, poor fit].
The same measure for `COc1ccc2nc(NC(=O)CSc3nc4cccnc4n3C)sc2c1`: 0.398 µM [rising, full curve].
The same measure for `COc1ccc(C(CNC(=O)c2ccc(-n3cnnn3)cc2)N2CCOCC2)cc1` (stereo not drawn): 0.158 µM [falling, full curve]; for `CC(C#N)Sc1ncnc2sc3c(c12)CCC3` (stereo not drawn): 12.6 µM [rising, single point].
To `Cc1cc(CN2C(=O)c3ccccc3C2=O)cc(N2CCOCC2)c1` belongs 3.98 µM [rising, single point].
In the case of `CCOc1cc(NC(=O)c2ccco2)c(OCC)cc1NC(=O)Cc1ccc(OC)c(OC)c1`, the AC50 was 10 µM [rising, partial curve].
To `CSc1nc2c(c(=O)n1-c1ccc(C)cc1)SCC2` belongs 6.31 µM [rising, full curve].
To `COc1ccc(CNC(=O)CCS(=O)(=O)c2cccc3nonc23)cc1` belongs 5.01 µM [rising, single point]; to `O=C(O)c1cc(-c2ccncc2)nc2ccc(S(=O)(=O)N3CCOCC3)cc12`, 25.1 µM [falling, single point].
The same measure for `O=C(c1ccco1)N1CCN(c2ncnc3c2oc2ccccc23)CC1`: 10 µM [rising, single point]; for `COc1ccc(-c2ccc(-c3noc(-c4cccs4)n3)c(OC)n2)cc1`: 10 µM [rising, partial curve]; for `Cc1ccc(NC(=O)CN(C)S(=O)(=O)c2cccc3nsnc23)cc1Cl`: 2 µM [falling, partial curve].
Regarding `CSCC[C@H](NC(=O)OC(C)(C)C)c1nnc(SCC(=O)Nc2c(C)cccc2C)o1`, the AC50 is 12.6 µM [falling, single point].
`COC(=O)c1sccc1NC(=O)c1cccnc1`: the AC50 is 12.6 µM [rising, partial curve].
Regarding `O=C(Nc1cc(C(F)(F)F)ccc1Cl)c1cc(C2CC2)on1`, the AC50 was 0.00398 µM [falling, full curve].
The same measure for `Cc1ccc(-c2ccc(=O)[nH]n2)cc1`: 15.8 µM [rising, single point]; for `O=c1c2oc3ccccc3c2ncn1Cc1ccccc1Cl`: 20 µM [rising, single point].
To `Cc1ccc2c(C)nc(Nc3nc(CSc4nnnn4-c4ccccc4)cc(=O)[nH]3)nc2c1` belongs 12.6 µM [rising, single point]; to `Cc1ccc(-c2nn(CC(C)(C)C)c3ncnc(N)c23)cc1`, 0.126 µM [rising, full curve]; to `CCC(C)N(C(=O)COC(=O)c1cn(CC)c2nc(C)ccc2c1=O)C1CCS(=O)(=O)C1` (stereo not drawn), 25.1 µM [rising, single point].
The same measure for `Cc1ccc2cc3c(NC(=O)c4ccco4)nn(C)c3nc2c1`: 10 µM [rising, partial curve]; for `CCOC(=O)CC1=NS(=O)(=O)c2ccccc2N1`: 15.8 µM [rising, single point]; for `C=CCc1c(C)[nH]c2ccc(C)cc2c1=O`: 0.00316 µM [falling, full curve, poor fit].
In the case of `O=C1CC(O)(C(F)(F)F)Oc2c1ccc1ccccc21` (stereo not drawn), the AC50 was 15.8 µM [falling, single point].
The same measure for `COCCn1c(=O)c(-c2cccc(C#N)c2)nc2cnc(N3CCNCC3)nc21`: 10 µM [rising, partial curve]; for `Cc1cc(C)c2c3c(sc2n1)C1(CCSCC1)C(C#N)=C(N)O3`: 10 µM [rising, single point].
To `CN1CC2(C(=O)c3ccccc3)CN(C)CC(C(=O)c3ccccc3)(C1)C2` belongs 0.126 µM [rising, full curve].
The same measure for `CCc1c(O)nc(SCC(=O)NCc2ccco2)[nH]c1=O`: 25.1 µM [rising, single point]; for `COC(=O)CSc1cc(SCC(=O)OC)c(C#N)c(SCC(=O)OC)c1`: 10 µM [rising, single point].
For the compound `Cc1ccc(-c2nn(C)c(=O)c3ccccc23)cc1CNS(C)(=O)=O`, the AC50 was 10 µM [rising, partial curve].
To `CC(=O)C(Sc1nc(N2CCOCC2)nc(N2CCOCC2)n1)C(=O)Nc1ccccc1` (stereo not drawn) belongs 7.94 µM [falling, partial curve]; to `COc1ccccc1NC(=O)c1cc2ccc(O)cc2o/c1=N\O`, 15.8 µM [rising, single point]; to `COc1ccc(C(=O)NCc2nnc(SCC(=O)Nc3cc(C)cc(C)c3)o2)cc1OC`, 25.1 µM [rising, partial curve, poor fit].
To `COc1ccc(-c2nn(-c3ccccc3)cc2/C=N/n2cnnc2)cc1OC` belongs 10 µM [rising, single point]; to `COc1ccc(Oc2ncc3ncc(=O)n(C)c3n2)cc1`, 10 µM [rising, partial curve].
To `O=C1c2ccccc2C(Nc2ccc3nc(-c4cccnc4)[nH]c3c2)N1Cc1ccco1` (stereo not drawn) belongs 10 µM [rising, partial curve]; to `COc1ccc(-c2cc(C(F)(F)F)nc(N3CCCCC3)n2)cc1OC`, 0.501 µM [rising, full curve].
Regarding `O=C(CSc1ccc2nnc(-c3cccs3)n2n1)N1CCOCC1`, the AC50 is 12.6 µM [rising, single point].
The same measure for `c1ccc2c3nnc4n(c-3nc2c1)CCCS4`: 0.00316 µM [falling, full curve, poor fit]; for `CCN(CC(=O)Nc1ccc2c(c1)OCCO2)C(=O)c1cccc(S(=O)(=O)N2CCOCC2)c1`: 0.00631 µM [falling, full curve, poor fit]; for `Cn1c(SCC(=O)c2ccccc2)nc2cccnc21`: 10 µM [rising, single point].
The same measure for `O=C(CN(CC1CCCO1)S(=O)(=O)c1ccc(S(=O)(=O)NC2CC2)cc1)Nc1ccccc1` (stereo not drawn): 5.01 µM [falling, single point].
In the case of `Cc1cc(C(=O)Nc2c(F)cc(F)cc2Br)no1`, the concentration at half-maximal activity (AC50) was 12.6 µM [falling, partial curve].
The same measure for `Cc1noc(C)c1C(=O)Nc1nc(C23CC4CC(CC(C4)C2)C3)cs1`: 20 µM [falling, single point].
The same measure for `CCOc1cc(C(=O)OCc2ccc(C(=O)OC)o2)cc(Br)c1OC`: 10 µM [rising, single point]; for `CC(=O)N1CCCc2cc(S(=O)(=O)N3CCN(C4CCCCC4)CC3)ccc21`: 3.98 µM [falling, single point]; for `COc1cc(C)c(C(C)C)cc1S(=O)(=O)n1cnc(C)c1`: 10 µM [rising, partial curve].
To `N#Cc1nc(-c2ccccc2F)oc1NC1CCCCC1` belongs 2.51 µM [rising, full curve]; to `CC(=O)Nc1ccc(NC(=O)CCC(=O)NCCO)cc1`, 0.158 µM [falling, partial curve].
Take `O=C(Nc1ccccn1)NC1CCS(=O)(=O)C1` (stereo not drawn): the AC50 is 0.316 µM [rising, partial curve].
For `CCOC(=O)C1CCN(C(=O)Nc2ccccc2Cl)CC1`, the AC50 was 0.251 µM [rising, full curve, poor fit].
